Data as given in PubChem BioAssay AID1259405 (NCATS, 2018).
Assay: 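Silenced genes that increase secreted GFP made by CHO cells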 (primary screen). Cells: Chinese hamster CHO-K1 ovary cells with stable secreted eGFP expression. Knock-down reagent: single siRNA against mouse genes, 0.8 pmol siRNA per well (2 µl of 400 nM stock). Duration: 3 days. Measured: 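Percent of the per-plate non-targeting control median for intracellular GFP per well by laser scanning cytometry and for cell viability by ATP luminescence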. Reading the numbers: GFP, % of control: higher = more GFP per well, higher productivity; viability (ATP), % of control: higher = more viable cells (more ATP). Active means: 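Called active when intracellular GFP, relative to negative control, is at or above 120%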.
In all, the deposit lists about 50,000 reagents; below is a random part of them. In the full data, about 4,000 (8%) are marked active. 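Mouse siRNA library applied to hamster cells; one well for each siRNA.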 The numbers tell different reagents against one gene apart. Reagent sequences are not shown.

Tnni2 (troponin I, skeletal, fast 2) #1
- GFP, % of control: 54.1
- viability (ATP), % of control: 45.9
- Outcome: inactive

Tnni2 (troponin I, skeletal, fast 2) #2
- GFP, % of control: 74.2
- viability (ATP), % of control: 71.1
- Outcome: inactive

Tnni2 (troponin I, skeletal, fast 2) #3
- GFP, % of control: 87.2
- viability (ATP), % of control: 53
- Outcome: inactive

Or5w1b (olfactory receptor family 5 subfamily W member 1B) #1
- GFP, % of control: 66.4
- viability (ATP), % of control: 77.6
- Outcome: inactive

Or5w1b (olfactory receptor family 5 subfamily W member 1B) #2
- GFP, % of control: 62.2
- viability (ATP), % of control: 53.2
- Outcome: inactive

Or5w1b (olfactory receptor family 5 subfamily W member 1B) #3
- GFP, % of control: 30.6
- viability (ATP), % of control: 28.9
- Outcome: inactive

Invs (inversin) #1
- GFP, % of control: 42.5
- viability (ATP), % of control: 55.6
- Outcome: inactive

Invs (inversin) #2
- GFP, % of control: 82.9
- viability (ATP), % of control: 65.9
- Outcome: inactive

Invs (inversin) #3
- GFP, % of control: 78.6
- viability (ATP), % of control: 74.1
- Outcome: inactive

Orm3 (orosomucoid 3) #1
- GFP, % of control: 99
- viability (ATP), % of control: 63.7
- Outcome: inactive

Orm3 (orosomucoid 3) #2
- GFP, % of control: 50.1
- viability (ATP), % of control: 60.9
- Outcome: inactive

Orm3 (orosomucoid 3) #3
- GFP, % of control: 101
- viability (ATP), % of control: 141
- Outcome: inactive

Nfkbiz #1
- GFP, % of control: 106
- viability (ATP), % of control: 69.3
- Outcome: inactive

Nfkbiz #2
- GFP, % of control: 44.3
- viability (ATP), % of control: 21.9
- Outcome: inactive

Nfkbiz #3
- GFP, % of control: 98.4
- viability (ATP), % of control: 112
- Outcome: inactive

Wdhd1 (WD repeat and HMG-box DNA binding protein 1) #1
- GFP, % of control: 45.9
- viability (ATP), % of control: 55.8
- Outcome: inactive

Wdhd1 (WD repeat and HMG-box DNA binding protein 1) #2
- GFP, % of control: 70.3
- viability (ATP), % of control: 71.9
- Outcome: inactive

Wdhd1 (WD repeat and HMG-box DNA binding protein 1) #3
- GFP, % of control: 103
- viability (ATP), % of control: 91.6
- Outcome: inactive

Mtg1 (mitochondrial ribosome-associated GTPase 1) #1
- GFP, % of control: 98.6
- viability (ATP), % of control: 64.8
- Outcome: inactive

Mtg1 (mitochondrial ribosome-associated GTPase 1) #2
- GFP, % of control: 66.3
- viability (ATP), % of control: 65.7
- Outcome: inactive

Mtg1 (mitochondrial ribosome-associated GTPase 1) #3
- GFP, % of control: 53.1
- viability (ATP), % of control: 51.1
- Outcome: inactive

Ppp2r2c (protein phosphatase 2, regulatory subunit B, gamma) #1
- GFP, % of control: 44.7
- viability (ATP), % of control: 36.7
- Outcome: inactive

Ppp2r2c (protein phosphatase 2, regulatory subunit B, gamma) #2
- GFP, % of control: 62.3
- viability (ATP), % of control: 101
- Outcome: inactive

Ppp2r2c (protein phosphatase 2, regulatory subunit B, gamma) #3
- GFP, % of control: 107
- viability (ATP), % of control: 126
- Outcome: inactive

Pcmt1 (protein-L-isoaspartate (D-aspartate) O-methyltransferase 1) #1
- GFP, % of control: 97.8
- viability (ATP), % of control: 90.1
- Outcome: inactive

Pcmt1 (protein-L-isoaspartate (D-aspartate) O-methyltransferase 1) #2
- GFP, % of control: 141
- viability (ATP), % of control: 147
- Outcome: active

Pcmt1 (protein-L-isoaspartate (D-aspartate) O-methyltransferase 1) #3
- GFP, % of control: 124
- viability (ATP), % of control: 134
- Outcome: active

Manbal (mannosidase, beta A, lysosomal-like) #1
- GFP, % of control: 51.6
- viability (ATP), % of control: 50.8
- Outcome: inactive

Manbal (mannosidase, beta A, lysosomal-like) #2
- GFP, % of control: 79.6
- viability (ATP), % of control: 74
- Outcome: inactive

Manbal (mannosidase, beta A, lysosomal-like) #3
- GFP, % of control: 87.8
- viability (ATP), % of control: 71.8
- Outcome: inactive

Ubr1 (ubiquitin protein ligase E3 component n-recognin 1) #1
- GFP, % of control: 79
- viability (ATP), % of control: 57
- Outcome: inactive

Ubr1 (ubiquitin protein ligase E3 component n-recognin 1) #2
- GFP, % of control: 88.2
- viability (ATP), % of control: 82.1
- Outcome: inactive

Ubr1 (ubiquitin protein ligase E3 component n-recognin 1) #3
- GFP, % of control: 78.4
- viability (ATP), % of control: 90.6
- Outcome: inactive

Nmur2 (neuromedin U receptor 2) #1
- GFP, % of control: 80.5
- viability (ATP), % of control: 65.8
- Outcome: inactive

Nmur2 (neuromedin U receptor 2) #2
- GFP, % of control: 72.3
- viability (ATP), % of control: 56.3
- Outcome: inactive

Nmur2 (neuromedin U receptor 2) #3
- GFP, % of control: 44.9
- viability (ATP), % of control: 53.3
- Outcome: inactive

Or6s1 (olfactory receptor family 6 subfamily S member 1) #1
- GFP, % of control: 86.1
- viability (ATP), % of control: 64.6
- Outcome: inactive

Or6s1 (olfactory receptor family 6 subfamily S member 1) #2
- GFP, % of control: 106
- viability (ATP), % of control: 111
- Outcome: inactive

Or6s1 (olfactory receptor family 6 subfamily S member 1) #3
- GFP, % of control: 56.9
- viability (ATP), % of control: 68.8
- Outcome: inactive

Babam2 (BRISC and BRCA1 A complex member 2) #1
- GFP, % of control: 125
- viability (ATP), % of control: 97.2
- Outcome: active

Babam2 (BRISC and BRCA1 A complex member 2) #2
- GFP, % of control: 84.6
- viability (ATP), % of control: 63.4
- Outcome: inactive

Babam2 (BRISC and BRCA1 A complex member 2) #3
- GFP, % of control: 105
- viability (ATP), % of control: 127
- Outcome: inactive

In a second layout: 2 of the entries above.
Pcmt1 (protein-L-isoaspartate (D-aspartate) O-methyltransferase 1) #2: GFP, % of control = 141; viability (ATP), % of control = 147; Outcome = active
Pcmt1 (protein-L-isoaspartate (D-aspartate) O-methyltransferase 1) #3: GFP, % of control = 124; viability (ATP), % of control = 134; Outcome = active
